These are yes or no findings as the source states them, for the method shown. Some binding calls cover weakened binding; strength is not graded here.
Tests used:
[1] = target: human trk proto-oncogene product gp140^trk (human) (UniProt P04629); assay: [125I]-βNGF binding to cells
[2] = target: human trk proto-oncogene product gp140^trk (human) (UniProt P04629); assay: [125I]-NGF binding to Sf9 cells
[3] = target: human trk proto-oncogene product gp140^trk (human) (UniProt P04629); assay: competition with [125I]-NT-3 on E25-48 cells
[4] = target: human trk proto-oncogene product gp140^trk (human) (UniProt P04629); assay: [125I]-βNGF (1 nM) binding to E25-427 and E25-48 cells at 4°C
[5] = target: human trk proto-oncogene product gp140^trk (human) (UniProt P04629); assay: 0.1 nM [125I]-NGF on E25-42 cells, tested for competition by XNT-4
[6] = target: human trk proto-oncogene product gp140^trk (human) (UniProt P04629); assay: chemical cross-linking of [125I]-NGF to E25-427 and E25-48 cells, immunoprecipitation with anti-trk antiserum

Chains of the proteins cited; added tags and fusions are not shown. Residues count along the entry.
UniProt P04629, residues 33-796: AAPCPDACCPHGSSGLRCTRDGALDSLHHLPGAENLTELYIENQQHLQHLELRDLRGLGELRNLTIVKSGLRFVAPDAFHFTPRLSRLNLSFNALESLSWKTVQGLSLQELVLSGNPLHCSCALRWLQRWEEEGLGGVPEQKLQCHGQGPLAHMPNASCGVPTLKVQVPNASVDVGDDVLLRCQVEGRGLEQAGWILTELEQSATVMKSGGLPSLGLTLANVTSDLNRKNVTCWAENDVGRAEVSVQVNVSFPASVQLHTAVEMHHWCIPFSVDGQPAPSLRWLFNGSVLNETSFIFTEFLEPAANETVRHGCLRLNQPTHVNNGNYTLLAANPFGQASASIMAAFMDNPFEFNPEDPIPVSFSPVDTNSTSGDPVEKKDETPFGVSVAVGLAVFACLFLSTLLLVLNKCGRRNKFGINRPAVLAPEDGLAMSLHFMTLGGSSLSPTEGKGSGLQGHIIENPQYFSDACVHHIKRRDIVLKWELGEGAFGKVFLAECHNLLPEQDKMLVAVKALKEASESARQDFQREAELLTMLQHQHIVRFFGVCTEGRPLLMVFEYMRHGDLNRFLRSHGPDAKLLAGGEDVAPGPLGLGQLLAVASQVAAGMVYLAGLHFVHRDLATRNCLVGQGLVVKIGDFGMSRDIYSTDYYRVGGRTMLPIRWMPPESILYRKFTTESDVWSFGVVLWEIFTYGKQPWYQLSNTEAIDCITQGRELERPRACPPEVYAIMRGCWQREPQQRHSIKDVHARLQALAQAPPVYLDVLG
UniProt P01139, residues 122-241: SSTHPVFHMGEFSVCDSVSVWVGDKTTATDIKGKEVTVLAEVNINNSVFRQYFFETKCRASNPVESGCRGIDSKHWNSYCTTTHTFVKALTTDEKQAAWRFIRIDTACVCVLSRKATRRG

Measured: binding

murine 2.5S NGF (βNGF) (from UniProt P01139 122-241) (ligand)
binds: all assays above

Source: patent EP0504914A2
